Experimental data from PubChem BioAssay AID188 (DTP/NCI, 2004).
The mice bore no tumour; each value counts animals alive of those treated. Counts of survivors are from the toxicity check (mostly the fifth day) where no day follows; animals may have died later. Schedule codes are those of the source, taken here to give the interval after Q, in days (D) or hours (H), and the number of doses after X.

System: CD2F1 mice, nontumored, toxicity/survival
Experiment: NCI In Vivo Anticancer Drug Screen. Data for tumor model Nontumored Animals (Toxicity Test) in CD2F1 (CDF1) mice

Cc1[nH]c(=O)[nH]c(=O)c1N(CCF)CCCl
survivor count (dose: 32.0 mg/kg/injection, schedule: Q03HX008 (oral), vehicle: acid diluted with saline): 0 of 8
survivor count (dose: 32.0 mg/kg/injection, schedule: Q03HX008 (oral), vehicle: other): 0 of 8
survivor count (dose: 32.0 mg/kg/injection, schedule: Q03HX016 (oral), vehicle: acid diluted with saline): 3 of 8
survivor count (dose: 32.0 mg/kg/injection, schedule: Q03HX016 (oral), vehicle: other): 0 of 8
survivor count (dose: 32.0 mg/kg/injection, schedule: Q03HX024 (oral), vehicle: acid diluted with saline): 0 of 8
survivor count (dose: 32.0 mg/kg/injection, schedule: Q03HX024 (oral), vehicle: other): 0 of 8
survivor count (dose: 32.0 mg/kg/injection, schedule: Q04DX003 (ip), vehicle: acid diluted with saline): 8 of 8
survivor count (dose: 32.0 mg/kg/injection, schedule: Q04DX003 (oral), vehicle: acid diluted with saline): 8 of 8
survivor count (dose: 32.0 mg/kg/injection, schedule: Q04DX003 (oral), vehicle: other): 8 of 8
survivor count (dose: 32.0 mg/kg/injection, schedule: Q08DX002 (ip), vehicle: acid diluted with saline): 8 of 8
survivor count (dose: 32.0 mg/kg/injection, schedule: Q08DX002 (oral), vehicle: other): 8 of 8
survivor count (dose: 64.0 mg/kg/injection, schedule: Q01DX001 (ip), vehicle: acid diluted with saline): 8 of 8
survivor count (dose: 64.0 mg/kg/injection, schedule: Q01DX001 (oral), vehicle: acid diluted with saline): 8 of 8
survivor count (dose: 64.0 mg/kg/injection, schedule: Q01DX001 (oral), vehicle: other): 1 of 8
survivor count (dose: 64.0 mg/kg/injection, schedule: Q01DX001 (sc), vehicle: acid diluted with saline): 8 of 8
survivor count (dose: 64.0 mg/kg/injection, schedule: Q01DX009 (ip), vehicle: acid diluted with saline): 1 of 8
survivor count (dose: 64.0 mg/kg/injection, schedule: Q01DX009 (ip), vehicle: saline with Tween-80): 0 of 8
survivor count (dose: 64.0 mg/kg/injection, schedule: Q01DX009 (oral), vehicle: acid diluted with saline): 8 of 8
survivor count (dose: 64.0 mg/kg/injection, schedule: Q01DX009 (oral), vehicle: other): 0 of 8
survivor count (dose: 64.0 mg/kg/injection, schedule: Q03HX008 (oral), vehicle: acid diluted with saline): 0 of 8
survivor count (dose: 64.0 mg/kg/injection, schedule: Q03HX008 (oral), vehicle: other): 0 of 8
survivor count (dose: 64.0 mg/kg/injection, schedule: Q03HX016 (oral), vehicle: acid diluted with saline): 0 of 8
survivor count (dose: 64.0 mg/kg/injection, schedule: Q03HX016 (oral), vehicle: other): 0 of 8
survivor count (dose: 64.0 mg/kg/injection, schedule: Q03HX024 (oral), vehicle: other): 0 of 8
survivor count (dose: 64.0 mg/kg/injection, schedule: Q04DX003 (ip), vehicle: acid diluted with saline): 8 of 8
survivor count (dose: 64.0 mg/kg/injection, schedule: Q04DX003 (oral), vehicle: acid diluted with saline): 8 of 8
survivor count (dose: 64.0 mg/kg/injection, schedule: Q04DX003 (oral), vehicle: other): 7 of 8
survivor count (dose: 64.0 mg/kg/injection, schedule: Q08DX002 (ip), vehicle: acid diluted with saline): 8 of 8
survivor count (dose: 64.0 mg/kg/injection, schedule: Q08DX002 (oral), vehicle: acid diluted with saline): 8 of 8
survivor count (dose: 64.0 mg/kg/injection, schedule: Q08DX002 (oral), vehicle: other): 6 of 8
survivor count (dose: 128.0 mg/kg/injection, schedule: Q01DX001 (ip), vehicle: acid diluted with saline): 6 of 8
survivor count (dose: 128.0 mg/kg/injection, schedule: Q01DX001 (oral), vehicle: acid diluted with saline): 8 of 8
survivor count (dose: 128.0 mg/kg/injection, schedule: Q01DX001 (oral), vehicle: other): 1 of 8
survivor count (dose: 128.0 mg/kg/injection, schedule: Q01DX001 (sc), vehicle: acid diluted with saline): 8 of 8
survivor count (dose: 128.0 mg/kg/injection, schedule: Q01DX009 (ip), vehicle: acid diluted with saline): 0 of 8
survivor count (dose: 128.0 mg/kg/injection, schedule: Q01DX009 (ip), vehicle: saline with Tween-80): 0 of 8
survivor count (dose: 128.0 mg/kg/injection, schedule: Q01DX009 (oral), vehicle: acid diluted with saline): 8 of 8
survivor count (dose: 128.0 mg/kg/injection, schedule: Q01DX009 (oral), vehicle: other): 1 of 8
survivor count (dose: 128.0 mg/kg/injection, schedule: Q03HX008 (oral), vehicle: acid diluted with saline): 0 of 8
survivor count (dose: 128.0 mg/kg/injection, schedule: Q03HX008 (oral), vehicle: other): 0 of 8
survivor count (dose: 128.0 mg/kg/injection, schedule: Q03HX016 (oral), vehicle: acid diluted with saline): 0 of 8
survivor count (dose: 128.0 mg/kg/injection, schedule: Q03HX016 (oral), vehicle: other): 0 of 8
survivor count (dose: 128.0 mg/kg/injection, schedule: Q04DX003 (oral), vehicle: acid diluted with saline): 8 of 8
survivor count (dose: 128.0 mg/kg/injection, schedule: Q04DX003 (oral), vehicle: other): 0 of 8
survivor count (dose: 128.0 mg/kg/injection, schedule: Q08DX002 (ip), vehicle: acid diluted with saline): 8 of 8
survivor count (dose: 128.0 mg/kg/injection, schedule: Q08DX002 (oral), vehicle: acid diluted with saline): 8 of 8
survivor count (dose: 128.0 mg/kg/injection, schedule: Q08DX002 (oral), vehicle: other): 0 of 8
survivor count (dose: 256.0 mg/kg/injection, schedule: Q01DX001 (ip), vehicle: acid diluted with saline): 0 of 8
survivor count (dose: 256.0 mg/kg/injection, schedule: Q01DX001 (oral), vehicle: acid diluted with saline): 8 of 8
survivor count (dose: 256.0 mg/kg/injection, schedule: Q01DX001 (oral), vehicle: other): 0 of 8
survivor count (dose: 256.0 mg/kg/injection, schedule: Q01DX001 (sc), vehicle: acid diluted with saline): 8 of 8
survivor count (dose: 256.0 mg/kg/injection, schedule: Q01DX009 (oral), vehicle: other): 0 of 8
survivor count (dose: 256.0 mg/kg/injection, schedule: Q04DX003 (oral), vehicle: acid diluted with saline): 8 of 8
survivor count (dose: 256.0 mg/kg/injection, schedule: Q04DX003 (oral), vehicle: other): 0 of 8
survivor count (dose: 256.0 mg/kg/injection, schedule: Q08DX002 (oral), vehicle: acid diluted with saline): 8 of 8
survivor count (dose: 256.0 mg/kg/injection, schedule: Q08DX002 (oral), vehicle: other): 0 of 8
survivor count (dose: 512.0 mg/kg/injection, schedule: Q01DX001 (oral), vehicle: acid diluted with saline): 8 of 8
survivor count (dose: 512.0 mg/kg/injection, schedule: Q01DX001 (oral), vehicle: other): 0 of 8
survivor count (dose: 512.0 mg/kg/injection, schedule: Q04DX003 (oral), vehicle: other): 0 of 8
survivor count (dose: 512.0 mg/kg/injection, schedule: Q08DX002 (oral), vehicle: acid diluted with saline): 3 of 8
survivor count (dose: 512.0 mg/kg/injection, schedule: Q08DX002 (oral), vehicle: other): 0 of 8
survivor count (dose: 1024.0 mg/kg/injection, schedule: Q01DX001 (oral), vehicle: acid diluted with saline): 0 of 8
survivor count (dose: 1024.0 mg/kg/injection, schedule: Q01DX001 (oral), vehicle: other): 0 of 8
survivor count (dose: 1024.0 mg/kg/injection, schedule: Q08DX002 (oral), vehicle: acid diluted with saline): 0 of 8
survivor count (dose: 1024.0 mg/kg/injection, schedule: Q08DX002 (oral), vehicle: other): 0 of 8
